Measurements reported in PubChem BioAssay AID504784 (Drosophila RNAi Screening Center, 2011).

Aim: 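Search for regulators of lipid droplet storage in oleate-fed fly cells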 (primary screen)
Cells: Drosophila Kc167 embryonic cells
Reagents: long dsRNA against Drosophila genes, about 250 ng dsRNA per well
Time to read-out: 4 days
Treatment: cells fed 400 µM oleic acid bound to BSA
Measured: 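Cells imaged and segmented; ratio of lipid droplet area to nuclear area, log-transformed, then normalised as a B-score over the screen; higher means more stored lipid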
Reading the numbers: droplet/nuclear area B-score: higher = more stored lipid (overstorage)
The screen tested about 17,000 reagents; this is a random part of those that have a named target and a result. 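Each column is one replicate's B-score; the combined score over replicates was not deposited, so single values may mislead.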

| Gene | dsRNA | droplet/nuclear area B-score, replicate 1 | droplet/nuclear area B-score, replicate 2 |
| --- | --- | --- | --- |
| CG32240 | DRSC08093 | -0.318 | -0.00954 |
| CG32191 | DRSC10522 | 1.74 | 2.44 |
| bur (burgundy) | DRSC03163 | -1.53 | -0.495 |
| Atx2 (Ataxin-2) | DRSC15727 | 0.0487 | -0.289 |
| Atx2 (Ataxin-2) | DRSC23010 | 0.377 | -0.655 |
| CG10492 | DRSC02064 | 0.539 | – |
| Cog6 (Component of oligomeric golgi complex 6) | DRSC06806 | 0.0703 | -0.796 |
| Cda4 (Chitin deacetylase-like 4) | DRSC20623 | -0.49 | 0.148 |
| Cda4 (Chitin deacetylase-like 4) | DRSC20641 | 0.0682 | 1.24 |
| Cda4 (Chitin deacetylase-like 4) | DRSC20642 | 0.132 | -0.491 |
| CG11155 | DRSC17205 | -1.48 | -0.00339 |
| alpha-Catr (alpha-catenin related) | DRSC04669 | -0.204 | -0.373 |
| ND-B12 (NADH dehydrogenase (ubiquinone) B12 subunit) | DRSC04060 | 0.433 | 1.51 |
| CG7378 | DRSC20041 | 0.75 | -0.44 |
| Pi4KIIIalpha (Phosphatidylinositol 4-kinase III alpha) | DRSC18655 | 2.51 | 1.63 |
| CG17806 | DRSC15276 | 0.168 | -0.494 |
| Trap1 | DRSC05019 | 0.74 | 0.238 |
| CG14969 | DRSC08428 | -1.77 | -0.561 |
| Gr98d (Gustatory receptor 98d) | DRSC14571 | 0.684 | – |
| ab (abrupt) | DRSC03478 | 0.768 | 2.99 |
| ab (abrupt) | DRSC23179 | 2.24 | -0.428 |
| CG5402 | DRSC15792 | 1.97 | 0.77 |
| Lst (Limostatin) | DRSC07146 | -1.52 | – |
| CG34129 | DRSC15960 | -1.37 | -1.66 |
| Roc2 (Regulator of cullins 2) | DRSC07313 | -0.387 | -0.115 |
| PPO3 (Prophenoloxidase 3) | DRSC04325 | 1.03 | 0.177 |
| CG3301 | DRSC15471 | 0.0506 | -1.06 |
| Polr2M (RNA polymerase II subunit M) | DRSC15513 | 0.49 | -0.786 |
| Cen (Centrocortin) | DRSC02704 | -0.955 | -2.57 |
| Mccc2 (Methylcrotonoyl-CoA carboxylase 2) | DRSC04987 | -1.37 | -0.243 |
| GEFmeso (Guanine nucleotide exchange factor in mesoderm) | DRSC06748 | 0.0712 | 0.98 |
| GEFmeso (Guanine nucleotide exchange factor in mesoderm) | DRSC06940 | -0.0762 | -0.00163 |
| GEFmeso (Guanine nucleotide exchange factor in mesoderm) | DRSC21475 | 0.994 | 0.0394 |
| CG15822 | DRSC08482 | -1.1 | 0.129 |
| CG15822 | DRSC08483 | -0.802 | 2.13 |

Already shown: 4 of the entries above.
| Gene | dsRNA | droplet/nuclear area B-score, replicate 1 | droplet/nuclear area B-score, replicate 2 |
| --- | --- | --- | --- |
| CG11155 | DRSC17205 | -1.48 | -0.00339 |
| alpha-Catr (alpha-catenin related) | DRSC04669 | -0.204 | -0.373 |
| ND-B12 (NADH dehydrogenase (ubiquinone) B12 subunit) | DRSC04060 | 0.433 | 1.51 |
| CG7378 | DRSC20041 | 0.75 | -0.44 |
